Reference: article PMC12170880
No constants are given. Whether binding was seen depends on the method and setting. Binding calls can cover weak binding; strength is not graded here. For some of these results: Tags and fused reporters may be left off the sequences shown.

The chains behind the UniProt entries cited, without tags or fusion partners. Where a name states a change or a piece, a line headed by the entry shows the natural chain unless it says otherwise. Residues count along the entry.
UniProt F4I0M4: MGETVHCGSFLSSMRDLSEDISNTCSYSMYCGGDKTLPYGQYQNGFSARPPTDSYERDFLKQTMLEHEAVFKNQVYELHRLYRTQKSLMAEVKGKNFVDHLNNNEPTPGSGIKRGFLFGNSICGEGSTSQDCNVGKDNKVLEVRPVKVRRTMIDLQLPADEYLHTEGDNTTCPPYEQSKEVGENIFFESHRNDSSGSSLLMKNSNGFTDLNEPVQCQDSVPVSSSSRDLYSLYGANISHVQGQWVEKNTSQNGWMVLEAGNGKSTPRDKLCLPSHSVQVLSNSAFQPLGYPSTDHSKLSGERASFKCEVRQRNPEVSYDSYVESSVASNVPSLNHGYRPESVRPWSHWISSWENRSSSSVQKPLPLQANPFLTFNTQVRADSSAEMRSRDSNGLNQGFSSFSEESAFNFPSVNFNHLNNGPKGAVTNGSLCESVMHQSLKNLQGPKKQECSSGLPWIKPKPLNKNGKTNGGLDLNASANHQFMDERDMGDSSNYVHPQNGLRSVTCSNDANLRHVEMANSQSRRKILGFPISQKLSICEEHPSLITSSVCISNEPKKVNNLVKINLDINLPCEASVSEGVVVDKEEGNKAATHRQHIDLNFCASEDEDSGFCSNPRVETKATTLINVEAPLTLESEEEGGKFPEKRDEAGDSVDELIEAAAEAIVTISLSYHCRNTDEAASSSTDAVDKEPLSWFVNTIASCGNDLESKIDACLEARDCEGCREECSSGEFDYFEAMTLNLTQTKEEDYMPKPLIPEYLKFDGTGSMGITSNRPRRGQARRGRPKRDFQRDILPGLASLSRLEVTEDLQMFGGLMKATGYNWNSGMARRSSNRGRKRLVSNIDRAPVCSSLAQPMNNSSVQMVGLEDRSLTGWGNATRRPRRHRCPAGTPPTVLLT
UniProt Q9XIE1, residues 1-191: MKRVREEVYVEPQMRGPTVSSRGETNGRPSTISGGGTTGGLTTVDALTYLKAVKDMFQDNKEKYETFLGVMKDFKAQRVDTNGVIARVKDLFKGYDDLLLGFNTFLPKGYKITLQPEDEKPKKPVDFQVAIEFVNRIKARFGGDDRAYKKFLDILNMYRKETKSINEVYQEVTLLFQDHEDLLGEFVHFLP
UniProt Q9XIK6: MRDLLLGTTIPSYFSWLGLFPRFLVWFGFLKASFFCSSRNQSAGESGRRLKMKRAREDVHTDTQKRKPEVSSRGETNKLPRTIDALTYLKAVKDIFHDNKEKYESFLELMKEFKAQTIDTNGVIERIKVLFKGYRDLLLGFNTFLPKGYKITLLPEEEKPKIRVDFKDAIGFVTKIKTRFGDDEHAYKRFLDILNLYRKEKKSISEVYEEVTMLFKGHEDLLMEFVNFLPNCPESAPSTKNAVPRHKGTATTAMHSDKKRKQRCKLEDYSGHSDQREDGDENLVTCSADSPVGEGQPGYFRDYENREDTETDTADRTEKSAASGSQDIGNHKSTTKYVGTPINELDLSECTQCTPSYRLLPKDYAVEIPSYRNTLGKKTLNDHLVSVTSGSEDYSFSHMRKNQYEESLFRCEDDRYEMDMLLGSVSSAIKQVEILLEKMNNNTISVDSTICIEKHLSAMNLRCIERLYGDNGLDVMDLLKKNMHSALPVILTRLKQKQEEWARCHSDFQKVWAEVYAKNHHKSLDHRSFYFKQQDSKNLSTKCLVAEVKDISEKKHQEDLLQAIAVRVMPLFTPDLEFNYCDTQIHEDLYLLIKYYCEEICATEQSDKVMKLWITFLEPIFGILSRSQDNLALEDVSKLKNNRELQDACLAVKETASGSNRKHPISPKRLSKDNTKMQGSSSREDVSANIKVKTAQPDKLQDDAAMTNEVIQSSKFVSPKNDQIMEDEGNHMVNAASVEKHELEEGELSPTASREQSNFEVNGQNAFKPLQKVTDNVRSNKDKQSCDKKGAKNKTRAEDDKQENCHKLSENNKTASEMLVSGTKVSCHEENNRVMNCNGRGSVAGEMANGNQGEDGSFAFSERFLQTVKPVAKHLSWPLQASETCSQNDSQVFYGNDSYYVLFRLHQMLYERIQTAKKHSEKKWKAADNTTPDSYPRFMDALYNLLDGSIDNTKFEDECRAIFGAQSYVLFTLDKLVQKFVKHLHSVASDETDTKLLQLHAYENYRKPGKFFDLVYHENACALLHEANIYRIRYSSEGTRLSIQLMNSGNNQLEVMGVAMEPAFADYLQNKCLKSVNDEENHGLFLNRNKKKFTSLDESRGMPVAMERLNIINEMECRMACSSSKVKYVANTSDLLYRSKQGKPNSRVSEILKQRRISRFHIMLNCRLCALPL

Key:
[1] = molecular target: T1, HDA19 (two-hybrid fusion) (Arabidopsis thaliana) (UniProt O22446); assay: two-hybrid; pGADT7 fusions in AH109 mated with pGBKT7 fusions in Y187; growth on SD-WLH with 3-AT
T1 sequence: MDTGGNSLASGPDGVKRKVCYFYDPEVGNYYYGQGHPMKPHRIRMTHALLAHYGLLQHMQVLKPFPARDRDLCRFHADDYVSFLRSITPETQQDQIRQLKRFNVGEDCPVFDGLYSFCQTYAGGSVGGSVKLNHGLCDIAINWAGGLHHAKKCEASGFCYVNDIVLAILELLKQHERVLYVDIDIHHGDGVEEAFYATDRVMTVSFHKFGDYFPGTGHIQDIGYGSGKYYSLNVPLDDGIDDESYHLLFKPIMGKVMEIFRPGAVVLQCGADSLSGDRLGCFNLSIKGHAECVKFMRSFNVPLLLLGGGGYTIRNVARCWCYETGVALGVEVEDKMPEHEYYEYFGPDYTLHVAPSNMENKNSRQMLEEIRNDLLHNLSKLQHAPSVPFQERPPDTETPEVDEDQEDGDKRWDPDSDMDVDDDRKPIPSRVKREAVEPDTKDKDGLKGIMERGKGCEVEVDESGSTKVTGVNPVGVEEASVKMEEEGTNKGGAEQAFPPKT

[2] = molecular target: GST-HDIP1-4 (631–720 aa) (Arabidopsis thaliana) (UniProt F4I0M4); assay: pull-down; pairs of GST-, MBP- or His-tagged proteins incubated with GST or MBP beads 2 h at 4 °C, five washes with lysis buffer, elution, western blot with anti-GST, anti-MBP or anti-His; both purified
[3] = molecular target: T2, GST-HDA19 (Arabidopsis thaliana) (UniProt O22446); assay: as above
T2 sequence: T1 sequence

binding [2]	Substance	also measured
	HDIP1 (full length, two-hybrid fusion) (Arabidopsis thaliana)	binding [1]: binds
binds	His-SNL5-3 (1–191 aa) (from UniProt Q9XIE1 1-191) (domain or fragment)	
binds	His-SNL6-3 (1–179 aa) (from UniProt Q9XIK6) (domain or fragment)	
	MBP-HDIP3-C (906–1005 aa) (from UniProt Q9LMG4) (domain or fragment)	binding [3]: binds
